# Measurements as given in the supplement of paper PMC4604168 (melanoma cell lines).
# Some of the results follow. Many values rest on one well or one pass, so single values are uncertain.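 The apoptosis fraction was the count of cleaved-PARP antibody-stained nuclei relative to all DNA-stained nuclei, imaged in 1,536-well plates. Screening doses were set so most cells survived, and baseline and induced cleaved-PARP levels vary greatly across cell lines.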
# Assays:
# Test in all cases: cleaved PARP positive nuclei fraction relative to DMSO control; melanoma cells; higher = more apoptosis
# Settings in all cases: library dose: low library concentration; 72 h
# MZ2-MEL = system: MZ2-MEL
# MeWo = system: MeWo
# RPMI7951 = system: RPMI7951
# RVH-421 = system: RVH-421
# SkMel28 = system: SkMel28
# SkMel2 = system: SkMel2
# SkMel30 = system: SkMel30
# UACC62 = system: UACC62
# WM115 = system: WM115
# WM1716 = system: WM1716
# WM1745 = system: WM1745
# WM3526 = system: WM3526
# WM3619 = system: WM3619
# WM451Lu = system: WM451Lu
SMILES,cleaved PARP positive nuclei fraction (MZ2-MEL),cleaved PARP positive nuclei fraction (MeWo),cleaved PARP positive nuclei fraction (RPMI7951),cleaved PARP positive nuclei fraction (RVH-421),cleaved PARP positive nuclei fraction (SkMel28),cleaved PARP positive nuclei fraction (SkMel2),cleaved PARP positive nuclei fraction (SkMel30),cleaved PARP positive nuclei fraction (UACC62),cleaved PARP positive nuclei fraction (WM115),cleaved PARP positive nuclei fraction (WM1716),cleaved PARP positive nuclei fraction (WM1745),cleaved PARP positive nuclei fraction (WM3526),cleaved PARP positive nuclei fraction (WM3619),cleaved PARP positive nuclei fraction (WM451Lu)
"O=C(/C=C/c1cccnc1)NCCCCC1CCN(C(=O)c2ccccc2)CC1 + CC(=O)O[C@@]12CO[C@@H]1C[C@H](O)[C@@]1(C)C(=O)[C@H](O)C3=C(C)[C@@H](OC(=O)[C@H](O)[C@@H](NC(=O)OC(C)(C)C)c4ccccc4)C[C@@](O)([C@@H](OC(=O)c4ccccc4)[C@H]21)C3(C)C [Docetaxel] (first compound 0.01 µM, partner dose 0.0001 µM)",1200%,686%,219%,135%,90.8%,2110%,762%,103%,144%,191%,168%,347%,134%,81.5%
"CCCCCCCCCCCCCCCCCCOP(=O)([O-])OC1CC[N+](C)(C)CC1 [Perifosine] + CC(=O)O[C@@]12CO[C@@H]1C[C@H](O)[C@@]1(C)C(=O)[C@H](O)C3=C(C)[C@@H](OC(=O)[C@H](O)[C@@H](NC(=O)OC(C)(C)C)c4ccccc4)C[C@@](O)([C@@H](OC(=O)c4ccccc4)[C@H]21)C3(C)C [Docetaxel] (first compound 0.4 µM, partner dose 0.0001 µM)",578%,532%,607%,129%,226%,468%,407%,368%,212%,267%,172%,259%,131%,109%
"Cc1ccc(Nc2nccc(N(C)c3ccc4c(C)n(C)nc4c3)n2)cc1S(N)(=O)=O [Pazopanib] + C=CCNC1=C2C[C@@H](C)C[C@H](OC)[C@H](O)[C@@H](C)/C=C(\C)[C@H](OC(N)=O)[C@@H](OC)/C=C\C=C(/C)C(=O)NC(=CC1=O)C2=O [Tanespimycin] (first compound 0.4 µM, partner dose 0.002 µM)",175%,76.2%,134%,83.6%,113%,149%,89.6%,129%,96.9%,558%,105%,92.1%,127%,304%
"N#CC[C@H](C1CCCC1)n1cc(-c2ncnc3[nH]ccc23)cn1 [ruxolitinib] + O=C(Nc1cc(C(F)(F)F)cc(C(F)(F)F)c1)c1cc(Cl)ccc1O [IMD0354] (first compound 1 µM, partner dose 0.016 µM)",52.8%,162%,45.6%,204%,123%,159%,60.8%,28.6%,112%,996%,94%,81.6%,98.5%,80.9%
"Cc1cc(Nc2cc(N3CCN(C)CC3)nc(Sc3ccc(NC(=O)C4CC4)cc3)n2)n[nH]1 [Tozasertib] + COc1ccc(Cl)c(Nc2nc3ccccc3nc2NS(=O)(=O)c2cccc(NC(=O)C(C)(C)N)c2)c1 [XL147] (first compound 0.006 µM, partner dose 0.8 µM)",92.2%,173%,48.9%,38.8%,84.3%,91.5%,117%,213%,111%,76.9%,110%,192%,94.2%,107%
"COc1cc([C@@H]2c3cc4c(cc3[C@@H](O[C@@H]3O[C@@H]5CO[C@@H](C)O[C@H]5[C@H](O)[C@H]3O)[C@H]3COC(=O)[C@H]23)OCO4)cc(OC)c1O [etoposide] + CNC(=O)c1cc(Oc2ccc(NC(=O)Nc3ccc(Cl)c(C(F)(F)F)c3)cc2)ccn1 [sorafenib] (first compound 0.02 µM, partner dose 0.4 µM)",81.1%,86.5%,103%,147%,41%,81.4%,112%,57.5%,57.5%,113%,101%,89.5%,91.8%,67.2%
"O=C(Nc1cc(C(F)(F)F)cc(C(F)(F)F)c1)c1cc(Cl)ccc1O + CC(=O)c1c(C)c2cnc(Nc3ccc(N4CCNCC4)cn3)nc2n(C2CCCC2)c1=O [palbociclib] (first compound 0.016 µM, partner dose 0.04 µM)",44.5%,84.3%,202%,60.9%,127%,52.7%,41.9%,145%,50.4%,107%,116%,84.9%,154%,69.1%
"CCCCCCCCCCCCCCCCCCOP(=O)([O-])OC1CC[N+](C)(C)CC1 [Perifosine] + Nc1cccc2c1CN(C1CCC(=O)NC1=O)C2=O [lenalidomide] (first compound 0.4 µM, partner dose 1 µM)",90.1%,134%,104%,187%,83.3%,91.3%,17.3%,60.4%,78.7%,96.9%,95.3%,116%,112%,88.5%
"CC[C@]1(O)C[C@H]2CN(CCc3c([nH]c4ccccc34)[C@@](C(=O)OC)(c3cc4c(cc3OC)N(C=O)[C@H]3[C@@](O)(C(=O)OC)[C@H](OC(C)=O)[C@]5(CC)C=CCN6CC[C@]43[C@@H]65)C2)C1 [vincristine] + C[C@]1(c2nc3c(C(N)=O)cccc3[nH]2)CCCN1 [Veliparib] (first compound 0.0001 µM, partner dose 1.4 µM)",268%,243%,459%,119%,69.9%,114%,383%,363%,1670%,175%,106%,127%,178%,246%
"CCCCCCCCCCCCCCCCCCOP(=O)([O-])OC1CC[N+](C)(C)CC1 [Perifosine] + C[C@@H](Oc1cc(-c2cnn(C3CCNCC3)c2)cnc1N)c1c(Cl)ccc(F)c1Cl [Crizotinib] (first compound 0.4 µM, partner dose 0.2 µM)",102%,27.2%,51.5%,212%,194%,176%,68.4%,202%,155%,59.1%,75.6%,88.7%,99%,70.4%
"O=c1[nH]nc(Sc2ncc([N+](=O)[O-])s2)n1-c1ccc2c(c1)OCCO2 + O=C(O)c1ccc2c(c1)nc(Nc1cccc(Cl)c1)c1ccncc12 [CX4945] (first compound 0.2 µM, partner dose 0.4 µM)",213%,178%,32.3%,152%,73.2%,98.1%,73.2%,48.8%,30.2%,154%,98.5%,72.7%,93.3%,258%
"O=c1[nH]nc(Sc2ncc([N+](=O)[O-])s2)n1-c1ccc2c(c1)OCCO2 + Cc1nc(Nc2ncc(C(=O)Nc3c(C)cccc3Cl)s2)cc(N2CCN(CCO)CC2)n1 [dasatanib] (first compound 0.2 µM, partner dose 0.004 µM)",101%,76.1%,242%,131%,70.9%,171%,131%,131%,108%,91.5%,121%,26.5%,96.7%,177%
"Cc1ccc(Nc2nccc(N(C)c3ccc4c(C)n(C)nc4c3)n2)cc1S(N)(=O)=O [Pazopanib] + C#Cc1cccc(Nc2ncnc3cc(OCCOC)c(OCCOC)cc23)c1 [erlotinib] (first compound 0.4 µM, partner dose 0.8 µM)",59.8%,73.8%,59.3%,100%,78.6%,108%,185%,138%,171%,86%,104%,85.1%,83.8%,92.8%
"COc1cc([C@@H]2c3cc4c(cc3[C@@H](O[C@@H]3O[C@@H]5CO[C@@H](C)O[C@H]5[C@H](O)[C@H]3O)[C@H]3COC(=O)[C@H]23)OCO4)cc(OC)c1O [etoposide] + Cn1sc(=O)n(Cc2ccccc2)c1=O [TDZD-8] (first compound 0.02 µM, partner dose 0.4 µM)",56%,164%,64.9%,110%,24.9%,193%,176%,49.5%,91.3%,79.9%,95%,59.5%,101%,134%
"Cc1cc(Nc2cc(N3CCN(C)CC3)nc(Sc3ccc(NC(=O)C4CC4)cc3)n2)n[nH]1 [Tozasertib] + CCCCCCCCc1ccc(CCC(N)(CO)CO)cc1 [fingolimod] (first compound 0.006 µM, partner dose 2 µM)",94%,75.2%,77.4%,130%,23.7%,329%,72.2%,48.3%,128%,80.1%,103%,67.3%,103%,94.9%
"Cc1cc(Nc2cc(N3CCN(C)CC3)nc(Sc3ccc(NC(=O)C4CC4)cc3)n2)n[nH]1 [Tozasertib] + CC[C@]1(O)C[C@H]2CN(CCc3c([nH]c4ccccc34)[C@@](C(=O)OC)(c3cc4c(cc3OC)N(C=O)[C@H]3[C@@](O)(C(=O)OC)[C@H](OC(C)=O)[C@]5(CC)C=CCN6CC[C@]43[C@@H]65)C2)C1 [vincristine] (first compound 0.006 µM, partner dose 0.0001 µM)",200%,99.4%,92.8%,127%,82.8%,174%,242%,189%,728%,142%,123%,57.7%,153%,94.2%

# Looked up above:
# Under cleaved PARP positive nuclei fraction (RVH-421), CCCCCCCCCCCCCCCCCCOP(=O)([O-])OC1CC[N+](C)(C)CC1 [Perifosine] + CC(=O)O[C@@]12CO[C@@H]1C[C@H](O)[C@@]1(C)C(=O)[C@H](O)C3=C(C)[C@@H](OC(=O)[C@H](O)[C@@H](NC(=O)OC(C)(C)C)c4ccccc4)C[C@@](O)([C@@H](OC(=O)c4ccccc4)[C@H]21)C3(C)C [Docetaxel] (first compound 0.4 µM, partner dose 0.0001 µM) shows 129%
# Under cleaved PARP positive nuclei fraction (SkMel28), COc1cc([C@@H]2c3cc4c(cc3[C@@H](O[C@@H]3O[C@@H]5CO[C@@H](C)O[C@H]5[C@H](O)[C@H]3O)[C@H]3COC(=O)[C@H]23)OCO4)cc(OC)c1O [etoposide] + CNC(=O)c1cc(Oc2ccc(NC(=O)Nc3ccc(Cl)c(C(F)(F)F)c3)cc2)ccn1 [sorafenib] (first compound 0.02 µM, partner dose 0.4 µM) shows 41%
